Experimental data reported in PMC11923636, “Synthesis, Pharmacological Evaluation, and Molecular Modeling of Phthalimide Derivatives as Monoamine Oxidase and Cholinesterase Dual Inhibitors” (ACS Omega, 2025).

Assay: in vitro
Conditions: PAMPA
Description: A fundamental requirement for the effectiveness of anti-AD drugs is their capability to traverse the BBB (blood–brain barrier). […]
Briefly, synthesized compounds were first dissolved in DMSO (10 mM) that was further diluted by the addition of phosphate buffer ([…]) having a pH of 7.4. PBL dissolved in dodecane was used for coating the membranes of the donor plates. Then, the test compound (0.2 mL) was added to the plate, followed by PBS (0.2 mL; pH = 7.4) to the acceptor plate, which was further placed under the donor plate in order to form a “sandwich”. […] A UV plate reader was employed for the measurements of the drug concentration in donor, acceptor, and reference wells. The permeability (Pe) of the compounds was measured by using the following formula. [drawing 2]

COc1cc2c(cc1OC)C(=O)C(CC1CCN(Cc3ccccc3)CC1)C2 (centres unmarked) [donepezil]
prediction of CNS penetration: CNS+ (key: “CNS+” (prediction of high BBB permeation); Pe (10^–6 cm/s) > 4.39; “CNS–” (prediction of low BBB permeation); Pe (10^–6 cm/s) < 1)
Papp (pH 7.4): 16.7 ± 1.01 ×10⁻⁶ cm/s
